Test results: article PMC7515859
These are yes or no findings as the source states them, for the method shown. In cells and extracts the contact can be indirect. Some entries that bind do so weakly or less than the wild type.

By UniProt entry, the sequences of proteins in these tests, tags left out.
UniProt P50637: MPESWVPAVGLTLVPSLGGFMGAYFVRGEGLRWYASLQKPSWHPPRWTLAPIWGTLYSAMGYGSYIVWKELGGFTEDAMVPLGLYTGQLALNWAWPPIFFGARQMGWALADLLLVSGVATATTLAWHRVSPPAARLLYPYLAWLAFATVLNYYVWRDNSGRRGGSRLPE

B1: gp91^phox (NOX2 subunit) (protein, UniProt Q61093 1-570)
chain: MGNWAVNEGLSIFVILVWLGLNVFLFINYYKVYDDGPKYNYTRKLLGSALALARAPAACLNFNCMLILLPVCRNLLSFLRGSSACCSTRIRRQLDRNLTFHKMVAWMIALHTAIHTIAHLFNVEWCVNARVGISDRYSIALSDIGDNENEEYLNFAREKIKNPEGGLYVAVTRLAGITGIVITLCLILIITSSTKTIRRSYFEVFWYTHHLFVIFFIGLAIHGAERIVRGQTAESLEEHNLDICADKIEEWGKIKECPVPKFAGNPPMTWKWIVGPMFLYLCERLVRFWRSQQKVVITKVVTHPFKTIELQMKKKGFKMEVGQYIFVKCPKVSKLEWHPFTLTSAPEEDFFSIHIRIVGDWTEGLFNACGCDKQEFQDAWKLPKIAVDGPFGTASEDVFSYEVVMLVGAGIGVTPFASILKSVWYKYCDNATSLKLKKIYFYWLCRDTHAFEWFADLLQLLETQMQERNNANFLSYNIYLTGWDESQANHFAVHHDEEKDVITGLKQKTLYGRPNWDNEFKTIASEHPNTTIGVFLCGPEALAETLSKQSISNSESGPRGVHFIFNKENF
B2: p22^phox (NOX2 subunit) (protein, UniProt Q61462 1-192)
chain: MGQIEWAMWANEQALASGLILITGGIVATAGRFTQWYFGAYSIAAGVLICLLEYPRGKRKKGSTMERCGQKYLTSVVKLFGPLTRNYYVRAALHFLLSVPAGFLLATILGTVCLAIASVIYLLAAIRGEQWTPIEPKPKERPQVGGTIKQPPTNPPPRPPAEVRKKPSEGEEEAASAGGPQVNPMPVTDEVV

Columns and labels:
[1] = target: Translocator protein 18 kDa (TSPO) (mouse (endogenous in primary microglia)) (UniProt P50637); assay: proximity ligation; Duolink PLA in fixed (4% PFA), permeabilised (0.2% Triton X-100) primary mouse microglia; goat anti-TSPO with mouse anti-gp91^phox, mouse anti-p22^phox or rabbit anti-VDAC; vehicle or LPS 18 h (no effect of LPS seen); single-antibody and no-primary controls
[2] = target: Translocator protein 18 kDa (TSPO) (mouse (endogenous in primary microglia)) (UniProt P50637); assay: co-IP; primary mouse microglia lysate (0.5% NP-40, 150 mM KCl, 2.5 mM EDTA, 10 mM Tris pH 7.4), pre-cleared; IP with anti-TSPO antibody (ab109497) overnight at 4 °C, Protein G Dynabeads; Western blot; cells treated 18 h with vehicle or 100 ng/mL LPS (less gp91^phox and p22^phox co-precipitated after LPS, VDAC unchanged); no-antibody IP as negative control

Binder	binding [1]	binding [2]
B1	binds	binds
B2	binds	binds
